PubChem BioAssay AID2417 (National Center for Advancing Translational Sciences (NCATS), 2010)
The campaign covered roughly 140,000 compounds. About 4,300 (3.1%) were called active. This list was built around the results that the source calls inconclusive (neither active nor inactive); the mix of calls is not that of the screen.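 Rule for the calls: active = readout at or below -70, meaning at least 70% loss of cells showing the perinucleolar compartment, a nuclear body marking cancer cells; inconclusive = readout between -30 and a set limit; inactive = the rest.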

Experiment: High Content Assay for Compounds that inhibit the Assembly of the Perinucleolar Compartment;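 note: plate controls were DMSO wells for no effect and camptothecin positive control wells for full effect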
Conditions: PC3M PTB-GFP, PNC prevalence imaging, 16 h; at 10 µM; hits give low values
Procedure, shortened: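 Read-out is percentage of cells bearing a perinucleolar compartment, from automated 20x imaging of fixed, Hoechst-stained PC3M PTB-GFP cells. Cells were seeded 4 h, then exposed 16 h to compound (23 nl of library stock) in duplicate plates.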

Structure (SMILES) | activity change (PNC), negative = inhibition
COc1ccc(CCn2c(O)c(C=NCCCN(C)C)c(=O)[nH]c2=O)cc1OC | inconclusive: -66.8%
CN1CC[C@@]23CCCC[C@@H]2[C@@H]1Cc1ccc(O)cc13 | inconclusive: -37.9%
c1ccc(C2CC3CC4(CCCC4)N2O3)cc1 (centres undefined) | inconclusive: -35.8%
Nc1ncc(P(=S)(N2CCOCC2)N2CCOCC2)s1 | inactive: 13.6%
COc1ccc(C=O)cc1O | inactive: 14.5%
O=C(Cn1cnc2ccccc2c1=O)NCCC(=O)N1CCC2(CC1)OCCO2 | inconclusive: -42.5%
COCCOC(=O)c1c(N)n(Cc2ccc(OC)cc2)c2nc3ccccc3nc12 | inconclusive: -50.6%
Cc1cccc(-n2c(/C=C/c3ccc([N+](=O)[O-])o3)nc3ccccc3c2=O)c1 | inconclusive: -72.4%
CN1CCC(N(C)c2nc(-c3ccccc3)nc3ccccc23)CC1 | inconclusive: -60.7%
O=c1[nH]c(=S)n(C2CC2)c(O)c1C=Nc1cccc(C(F)(F)F)c1 | inconclusive: -42.9%
CCSc1nnc([C@@H](N)Cc2ccccc2)o1 | inconclusive: -38.1%
Cc1ccc(C2SCC(=O)Nc3c2c(=O)[nH]n3C2CCOC(C)(C)C2)cc1 (centres undefined) | inconclusive: -65.8%
O=C(C1CC(=O)N(C2CCCCCCC2)C1)N1CCC2(CC1)OCCO2 (centres undefined) | inconclusive: -31.4%
O=C1NC(=O)C2(Cc3ccccc3N3CCCC32)C(=O)N1c1cccc(Cl)c1 (centres undefined) | inactive: -7.02%
O=c1[nH]c(=O)n(CCC2=CCCCC2)c(O)c1C=NCc1cccnc1 | inactive: 59%
CCN(CC)c1ccc(N=Cc2c(O)n(Cc3ccccc3)c(=O)[nH]c2=O)cc1 | inconclusive: -51.2%
CC(C)n1c(=O)c(C=Nc2ccc(S(N)(=O)=O)cc2)c(O)n(Cc2ccco2)c1=O | inconclusive: -62.5%
O=C(C1CCN(S(=O)(=O)N2CCOCC2)CC1)N1CCC2(CC1)OCCO2 | inconclusive: -35.9%
CC(C)c1oc(=O)cc2c1[C@@H](O)[C@H]1OC(=O)[C@@]3(C)C[C@@H](O)[C@@H](O)[C@@]2(C)C13 (some centres undefined) | inconclusive: -42.1%
COCCCNC(=O)c1c(NC(=O)c2ccco2)n(Cc2ccccc2)c2nc3ccccc3nc12 | inactive: -21.2%
COc1ccc(CCNCc2ccc(OC)c(OC)c2OC)cc1 | inactive: -12.9%
CCn1c(O)c(C=NCCc2c[nH]c3ccccc23)c(=O)[nH]c1=O | inconclusive: -62.5%
CN(C)CCN=Cc1c(O)n(-c2cccc3ccccc23)c(=O)[nH]c1=O | inconclusive: -69.5%

In the list so far, 2 contain a carbonyl joined to an NH by a bond outside any ring.
Structure (SMILES) | activity change (PNC), negative = inhibition
O=C(Cn1cnc2ccccc2c1=O)NCCC(=O)N1CCC2(CC1)OCCO2 | inconclusive: -42.5%
COCCCNC(=O)c1c(NC(=O)c2ccco2)n(Cc2ccccc2)c2nc3ccccc3nc12 | inactive: -21.2%

The listing continues:

Structure (SMILES) | activity change (PNC), negative = inhibition
OC(C#CCN1CCOCC1)(c1ccccc1)C1CCCC1 (centres undefined) | inconclusive: -36%
C=CCOC(=O)C1=C(C)OC(N)=C(C#N)C12C(=O)N(CN1CCOCC1)c1ccccc12 (centres undefined) | inconclusive: -65.4%
O=C(c1csc2c1CCCCC2)N1CCC2(CC1)OCCO2 | inconclusive: -50.9%
O=C1NC(=O)N(Cc2ccccc2)C(=O)/C1=C\N1CCCc2ccccc21 | inconclusive: -36.3%
OC12ONC(c3ccccn3)C1N1CCC2CC1 (centres undefined) | inconclusive: -62.1%
C[N+](C)(C)Cc1ccccc1 | inconclusive: -36.5%
CC(C)OP(=O)(OC(C)C)C(O)c1ccc(Br)cc1 (centres undefined) | inconclusive: -66.5%
COc1cc2[nH]c(=O)n(-c3cccc(Cl)c3)c(=O)c2cc1OC | inconclusive: -66.7%
O=c1[nH]c(=S)n(Cc2ccc(F)cc2)c(O)c1C=NCC1CCCO1 (centres undefined) | inconclusive: -57.4%
O=C(O)C1(c2ccc(Cl)cc2)CCC1 | active: -80.9%
FC(F)(F)c1ccc2c(c1)ncn2C1CCN(Cc2nnnn2C2CCCCC2)CC1 | active: -100%
O=C(O)c1cccc2c1NC(C(=O)O)C1CC(Sc3ccccc3[N+](=O)[O-])C(Cl)C21 (centres undefined) | inactive: -27.2%
Cc1ccc(C(O)(C(=O)NNC(=O)CN2CCN(C)CC2)c2ccc(C)cc2)cc1 | inconclusive: -70.3%
O=Cc1cn(Cc2cccc(F)c2)c2ccccc12 | inactive: 6.37%
CC/C(=C\C=C\[C@@H]1C=C[C@@H]2CCC[C@H]2[C@@H]1C(=O)c1ccc[nH]1)[C@@H]1O[C@@H]([C@@H](C)C(=O)O)CC[C@@H]1C | inactive: 203%
NCCc1c[nH]c2ccccc12 | inactive: 2.06%
CC1CC(C)CN(CC(=O)c2ccc(OC(F)F)cc2)C1 (centres undefined) | inconclusive: -43.2%
O=C1NC(=O)C(Cc2cccs2)C(=O)N1 | inconclusive: -44.1%
CC1(C)CC(=O)C(C=NCCN2CCN(C(=O)Cc3ccc(F)cc3)CC2)=C(O)C1 | inactive: 22.5%
c1cc2c(cc1CCNC1CCCCCC1)OCO2 | active: -119%
CN1CCC(O)(c2ccccc2)C2CCCC21 (centres undefined) | inconclusive: -50.8%
Cc1ccccc1-n1c(O)c(/C=C2/C(c3ccccc3)=Nc3ccccc32)c(=O)[nH]c1=O | inconclusive: -74.1%
OCCOCC#CCN1CCOCC1 | inconclusive: -47.9%

3 of these compounds in another layout:
Structure (SMILES),"activity change (PNC), negative = inhibition"
CC(C)OP(=O)(OC(C)C)C(O)c1ccc(Br)cc1 (centres undefined),inconclusive: -66.5%
COc1cc2[nH]c(=O)n(-c3cccc(Cl)c3)c(=O)c2cc1OC,inconclusive: -66.7%
O=c1[nH]c(=S)n(Cc2ccc(F)cc2)c(O)c1C=NCC1CCCO1 (centres undefined),inconclusive: -57.4%

(listing goes on)

Structure (SMILES) | activity change (PNC), negative = inhibition
CCOC(=O)C1=C(C)OC(N)=C(C(=O)OCC)[C@@]12C(=O)N(CC(N)=O)c1ccccc12 | inactive: 43%
CCOC(=O)c1c(NC(NC(=O)CF)C(Cl)(Cl)Cl)sc2c1CCCC2 (centres undefined) | inconclusive: -32.2%
Cc1cc(C)cc(N2C(=O)NC(=O)/C(=C\C=C\c3ccco3)C2=O)c1 | inactive: 50.8%
CCOc1ccc(-n2c(O)c(C=Nc3ccc(N(CC)CC)cc3)c(=O)[nH]c2=O)cc1 | inconclusive: -48.1%
O=C1C(c2ccccc2)=C(N2CC2)c2ccccc21 | inconclusive: -43.6%
C(CCc1nn[nH]n1)CCc1nn[nH]n1 | inconclusive: -48.8%
CC[N+](CC)(CC)CCCOC(=O)C(O)(c1ccccc1)C1CCCCC1 (centres undefined) | inconclusive: -47%
O=c1[nH]c(=S)n(-c2ccccc2)c(O)c1/C=N/N1CCOCC1 | inconclusive: -34.2%
COCCNC(=O)c1c(N)n(Cc2ccco2)c2nc3ccccc3nc12 | inconclusive: -50.2%
CC(=O)Nc1ccccc1C(=O)OCC(=O)c1ccccc1Cl | inactive: -21.7%
CC1CCN(C(=O)c2ccc(N3CC4CC(C3)c3cccc(=O)n3C4)c([N+](=O)[O-])c2)CC1 (centres undefined) | inactive: 0.893%
CN1CCN(C(=O)COc2ccc(S(=O)(=O)N(C)Cc3ccccc3)cc2)CC1 | inconclusive: -41.6%
Fc1ccc2c(c1)nnn2C1CCN(Cc2c(Cl)cccc2Cl)CC1 | inconclusive: -37.8%
COc1ccc(N2C(=O)NC(=O)/C(=C/c3cccc(OC(=O)c4cccs4)c3)C2=O)cc1Cl | inconclusive: -37.6%
Cc1ccc(C(=O)C2CN(C)CC2C(=O)c2ccc(C)cc2)cc1 (centres undefined) | inactive: 28.8%
Cc1cc(N2C(=O)C3CCCN3C2c2ccccc2)no1 (centres undefined) | inconclusive: -35%
Cc1cc(CN(C)C)c(OC(=O)N(C)C)cc1C | active: -122%
O=C1NC(=O)C(CCc2ccccn2)(Cc2cccc(Cl)c2Cl)C(=O)N1c1ccc(Br)cc1 (centres undefined) | inactive: -14.3%
CCCCCCn1c(O)c(C=NCCCn2ccnc2)c(=O)[nH]c1=O | inactive: -3.31%
CC(C)N(CC#CCC1(O)c2ccccc2-c2ccccc21)C(C)C | inactive: 48.8%
O=P(CN1CCN(c2ccccc2)CC1)(N1CCCCC1)N1CCCCC1 | inconclusive: -54.9%
CC1=C(C(=O)OC(C)C)[C@]2(C(=O)N(CC(N)=O)c3ccccc32)C(C#N)=C(N)O1 | active: -100%
C/C(=N\N1CCCCCC1)c1c(O)n(-c2ccccc2)c(=O)[nH]c1=O | inconclusive: -31.9%

Structure (SMILES) | activity change (PNC), negative = inhibition
CCCOc1ccccc1C1SCC(=O)Nc2c1c(=O)[nH]n2C(C)CCC (centres undefined) | inconclusive: -49.1%
CC(=NCc1cccnc1)c1c(O)n(-c2ccc(C)cc2)c(=O)[nH]c1=O | inconclusive: -55.9%
CCC(=O)N1CC(=O)Nc2ccc(F)cc2C1c1ccccc1 (centres undefined) | inconclusive: -42.5%
CCCCCCOC(=O)c1ccccc1N | inconclusive: -47.5%
CC12CN3CC(C)(CN(C1)P3(=O)Oc1ccccc1)C2=O (centres undefined) | inconclusive: -71.2%
COc1ccccc1CN1CCN(C(=O)COc2ccccc2)CC1 | inactive: -1.93%
Cc1cc(N2CCCCC2)ccc1C=C1C(=O)N(C)C(=S)N(C)C1=O | inactive: 5.05%
CCCCCCCSc1cc(OC)c(CCN(C)C)cc1OC | inactive: -27.6%
C=CCn1c(O)c(C(C)=Nc2ccc(C(=O)OCC)cc2)c(=O)[nH]c1=O | inactive: 17.3%
CCOC(=O)C(NC(=O)CC)(Nc1ccc(C(O)(C(=O)OCC)C(F)(F)F)cc1C)C(F)(F)F (centres undefined) | inconclusive: -33.6%
CCCCc1ccc2[nH]cc(CCN)c2c1 | inconclusive: -54.4%
CC(=O)Nc1ccc(C(=O)OCC(=O)Nc2ccc(Cl)cc2C(=O)c2ccccc2)cc1 | inconclusive: -36.5%
COc1cc(OC)cc(C(=O)Nc2ccc(Br)cc2C(=O)c2ccccc2)c1 | inconclusive: -49.3%
CCOC(=O)c1ccc(N2C(=O)CC(N3CCC(C#N)(c4ccccc4)CC3)C2=O)cc1 (centres undefined) | inconclusive: -39.6%
c1ccc(C2OCCN3CCCCC23)cc1 (centres undefined) | inconclusive: -58.7%
Nc1c2c(nc3sc4c(c13)CCCCC4)CCCC2 | active: -113%
O=C(CN1CC(c2ccccc2)CC1=O)Nc1ccc(F)cc1 (centres undefined) | inconclusive: -55%
Cc1c2ccncc2c(C)c2c1[nH]c1ccccc12 | active: -115%
Fc1ccc2c(c1)nnn2C1CCN(Cc2nnnn2C2CCCCC2)CC1 | inconclusive: -33.7%
CCN1CCN(c2ncnc3ccc(Br)cc23)CC1 | inconclusive: -78.1%
